# In the supplement of paper PMC10338343:
# ± gives the standard deviation. Only a part is listed here, and it is no random draw. Many entries were measured with a wide error. This is one part of the list.
# Legend:
# [1] = tested on: MILI (PIWIL2) piRISC loaded with L1MC piRNA (26 nt); assay: pre-steady-state target cleavage rate (min^-1); higher = faster piRNA-guided slicing of the target; settings: guide: L1MC piRNA 5'p-UAACUAAAUACUAUGCAAGCUGUAGG
# In short: (§1)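 The pre-steady-state cleavage rate was calculated from a burst-and-steady-state fit. Data came from Cleave-'n-Seq, in which […] transcribed, DNA-blocked target RNA library was mixed with 1 nM active affinity-purified piRISC carrying one synthetic guide, with or without 500 nM GTSF1 partner protein, in HEPES–potassium acetate buffer at 33 °C for 0–8 or 0–960 min. Uncleaved targets were sequenced and normalised to depth and to weakly complementary targets, three trials were pooled, and k3 was capped at 0.0001 min^-1.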
# [2] = tested on: MIWI (PIWIL1) piRISC loaded with L1MC piRNA (30 nt); assay: as above; settings: guide: L1MC piRNA 5'p-UAACUAAAUACUAUGCAAGCUGUAGGUCCU
# In short: as §1
# [3] = tested on: EfPiwi piRISC loaded with L1MC piRNA (26 nt); assay: pre-steady-state target cleavage rate (min^-1); guide: L1MC piRNA 5'p-UAACUAAAUACUAUGCAAGCUGUAGG; MIWI and MILI are mouse PIWI proteins and EfPiwi is from a freshwater sponge; tags in brackets are library labels; higher = faster piRNA-guided slicing of the target
# In short: as §1
# [4] = auxiliary factor: none (no GTSF1)
# [5] = auxiliary factor: 500 nM mouse GTSF1
# [6] = auxiliary factor: 500 nM Ephydatia muelleri Gtsf1
# [7] = auxiliary factor: none (no Gtsf1)
Sequence,"pre-steady-state target cleavage rate [1, 4]","pre-steady-state target cleavage rate [2, 5]","pre-steady-state target cleavage rate [2, 4]","pre-steady-state target cleavage rate [3, 6]","pre-steady-state target cleavage rate [1, 5]","pre-steady-state target cleavage rate [3, 7]"
UCCUGCUACAGCUUGCUUAGUAUUUUCAAA,0.000746 ± 0.0066,0.11 ± 0.028,0.000676 ± 0.0089,0.00321 ± 0.003,,
UCCUCCUUCAGCUUGCAUAGUAUUUAGUUA,,1.23 ± 0.036,0.0537 ± 0.0085,0.158 ± 0.041,0.297 ± 0.019,
UCCUGGAUGUCCUUGCUAUGUAUUUAGUUA,0.0016 ± 0.0037,0.00241 ± 0.0058,0.00114 ± 0.0073,0.000289 ± 0.014,,
UCCUGGAUGAGCUUGCUAAGUAUUUAGUAA,0.00149 ± 0.0044,0.00308 ± 0.0044,0.00048 ± 0.0056,0.000381 ± 0.0092,,
UCCUGGAUGUCCUUGCAUAGUAUUUAUUA,0.00241 ± 0.0037,0.00333 ± 0.0051,0.00242 ± 0.0035,0.00231 ± 0.0037,,
UCCUGGAUCAGCUUGCAUACAUUUUACAAA,0.000384 ± 0.011,0.000861 ± 0.013,0.000328 ± 0.01,0.00141 ± 0.0083,,
UCCUGGUACUCGUUGCAUAGUAUUUACAAA,0.00087 ± 0.011,0.00201 ± 0.0094,0.000831 ± 0.011,0.00137 ± 0.0057,,
UCCUGGAUGUCCUUGCAAUCUAUUUAGUUA,0.00143 ± 0.0037,0.00205 ± 0.0055,0.000895 ± 0.0056,0.000784 ± 0.0089,,
UCCUGGAUGUCCUUGCAUAGAUAUUAGUUA,0.00133 ± 0.0041,0.00346 ± 0.0043,0.00114 ± 0.007,0.00105 ± 0.0052,,
UCCUGGAUGUCGAACGUAUCUAUUUAGUUA [g2:g10:cont:t1A],0.000156 ± 0.021,0.000291 ± 0.017,0.000133 ± 0.037,,,0.000125 ± 0.034
UCCUCCUACACCUUGCAUAGAAUUUAGUUA,0.00087 ± 0.0065,0.341 ± 0.082,0.00682 ± 0.0023,,,0.000387 ± 0.013
UCCUGGAUCACGUUGCAUAGUAUUUUCAAA,0.00155 ± 0.0045,0.0017 ± 0.008,0.00162 ± 0.0061,0.000233 ± 0.019,,
UCCUGGAUGUCGAACGUAUCUAUUUAUUUA,,0.000132 ± 0.036,0.000211 ± 0.019,,0.000298 ± 0.01,< 0.0001
UCCUGCUACAGCUUGCAUUAGUAUUUAGUUA,0.00154 ± 0.0034,0.0188 ± 0.0083,0.000989 ± 0.0071,0.00378 ± 0.003,,
UCCUGGUACAGCUUGGUAAGUAUUUAGAAA,0.0011 ± 0.0052,0.00172 ± 0.0081,0.000795 ± 0.0096,0.00051 ± 0.0065,,
UCCUGGUACUGCUUCCAUAGUAUUUAGUUA,0.00156 ± 0.0074,0.00354 ± 0.0061,0.000752 ± 0.012,0.000916 ± 0.0063,,
UCCUGGAACAGCUUGCAUUCUAUUUUCAAA,0.00106 ± 0.0058,0.00289 ± 0.0061,0.000824 ± 0.0067,0.000398 ± 0.0063,,
UCCUGGAUCAGCUUGGAUAGUAUUUUCAAA,,0.00139 ± 0.0085,0.000476 ± 0.013,0.00105 ± 0.0045,0.000774 ± 0.013,
UCCUGGAUGUCGUUGCAUAGGUAUUUAGUUA,,0.000789 ± 0.013,0.00178 ± 0.006,0.000281 ± 0.018,0.00394 ± 0.0042,
UCCUGGAUGACGUUGCAUAGUAUUUACAAA,0.0012 ± 0.005,0.00126 ± 0.0095,0.00035 ± 0.01,0.000435 ± 0.0094,,
UCCUCAUACAGCUUGCAUAGUAUUUAGUUA,,1.47 ± 0.054,0.0664 ± 0.01,0.234 ± 0.064,0.319 ± 0.015,
UCCUGGAUGUCCUUGCUUAGUAUUAAGUUA,0.00148 ± 0.0032,0.00413 ± 0.0044,0.000814 ± 0.007,0.000312 ± 0.011,,

# As entered above:
# UCCUGGAUCACGUUGCAUAGUAUUUUCAAA – pre-steady-state target cleavage rate [1, 4]: 0.00155 ± 0.0045
# UCCUCCUACACCUUGCAUAGAAUUUAGUUA – pre-steady-state target cleavage rate [1, 4]: 0.00087 ± 0.0065

# The list continues:

Sequence,"pre-steady-state target cleavage rate [1, 4]","pre-steady-state target cleavage rate [2, 5]","pre-steady-state target cleavage rate [2, 4]","pre-steady-state target cleavage rate [3, 6]","pre-steady-state target cleavage rate [1, 5]","pre-steady-state target cleavage rate [3, 7]"
UCCUGGAUCAGCUUGCAUAGUAAAUAGAAA,0.00163 ± 0.0037,0.00348 ± 0.0042,0.00158 ± 0.003,0.00131 ± 0.0037,,
UCCUGCUUACAGCUUGCAUAGUAUUUAGUUA,,1.48 ± 0.13,0.0826 ± 0.02,0.0638 ± 0.015,0.451 ± 0.043,
UCCUGGAUGUGCUUCCAUUGUAUUUAGUUA,0.0011 ± 0.0057,0.00178 ± 0.006,0.000608 ± 0.011,0.000961 ± 0.0043,,
UCCUGGAUCAGCUUGCACUAGUAUUUAGUUA,0.00117 ± 0.0054,0.00245 ± 0.0046,0.0013 ± 0.0037,0.00365 ± 0.0027,,
UCCUGGUACAGCUUCCAUAGUUUUUAGUUA,0.00111 ± 0.013,0.00197 ± 0.007,0.000202 ± 0.026,0.000588 ± 0.022,,
UCCUGGAUGAGCUUCCAUAGUAUUUAGAAA,0.000554 ± 0.0087,0.00168 ± 0.0071,0.000975 ± 0.0063,0.00248 ± 0.0019,,
UCCUGGAUGUCGAUGCAUACUUUUUAGUUA,,0.000527 ± 0.019,0.000266 ± 0.024,,0.000472 ± 0.021,< 0.0001
UCCUGGAUCAGCUAUGCAUAGUAUUUAGUUA,,1.04 ± 0.073,0.0161 ± 0.0043,0.106 ± 0.02,0.281 ± 0.019,
UCCUGGAUCAGCUUGCUAUGUAUUUACAAA,0.00104 ± 0.0053,0.00128 ± 0.0079,0.00109 ± 0.0056,,,0.00041 ± 0.015
UCCUGGAUGUCGAAGCAUAGUAUUUAGUA,0.00236 ± 0.0031,0.00126 ± 0.01,0.00223 ± 0.0035,0.000966 ± 0.0072,,
UCCUCGUACAGCUUGCAUAGUAUUUAGUUA,,1.46 ± 0.043,0.0602 ± 0.01,0.163 ± 0.036,0.32 ± 0.015,
UCCUGGAUGUCGAAGCAUCGUAUUUAGUUA,0.00172 ± 0.0035,0.000946 ± 0.0069,0.000606 ± 0.011,0.000856 ± 0.0095,,
UCCUGGAUGUCGAAUCAUAGUAUUUAGUUA,0.00131 ± 0.0037,0.00127 ± 0.0049,0.000812 ± 0.0072,0.000192 ± 0.028,,
UCCUGGAUGUCGAUGCAUAGUAUUUAAUUA,0.00107 ± 0.0067,0.00251 ± 0.0049,0.000405 ± 0.018,0.00153 ± 0.0053,,
UCCUGGAUGUCCUUGCAAACUAUUUAGUUA,0.00159 ± 0.0035,0.00325 ± 0.0044,0.00111 ± 0.0056,0.00123 ± 0.0063,,
UCCUCCUACAGCUUGCAUACUAUUUACUUA,0.00122 ± 0.0047,0.197 ± 0.023,0.018 ± 0.0033,0.00621 ± 0.0047,,
UCCUGGAUGUCCUAGCAAAGUAUUUAGUUA,0.00175 ± 0.0035,0.00384 ± 0.0042,0.00097 ± 0.0063,,,0.000129 ± 0.028
UCCUGGAUGUCGAACGUAAUAUUUAGUUA,,0.0002 ± 0.035,0.000287 ± 0.027,,0.000239 ± 0.026,0.000141 ± 0.039
UCCUGGAUGUCGAAGCAAAGUUUUUAGUUA,0.000567 ± 0.0079,0.000725 ± 0.015,0.000688 ± 0.0078,0.000347 ± 0.011,,
UCCUGGAUGUCGUACCAUAGUAUUUAGUUA,0.000512 ± 0.01,0.00228 ± 0.0036,0.000459 ± 0.015,0.000255 ± 0.015,,
UCCUGGAACAGCUUGCAUAGUAUUAUCUUA,0.00134 ± 0.0053,0.141 ± 0.028,0.00408 ± 0.0029,0.00359 ± 0.0037,,
UCCUGGAUGUCGAUGCAUAGUAUUGUAGUUA,0.00166 ± 0.0052,0.0018 ± 0.006,0.000487 ± 0.015,0.000234 ± 0.021,,
